From patent EP2663342B1, “STABLE HYDROGEL COMPOSITIONS INCLUDING PHENYLEPHRINE” (ALLERGAN, INC., priority 2011, dated 2012)
At least one compound was matched to its structure with a doubt left.

Legend:
[1] = Extrusion force of HA-based gel after autoclaving; assay type: physicochemical; details: ingredient at 0.1 % in HA-based gel matrix; ΔF vs HA gel without the added ingredients
Description: Stability of a hydrogel composition disclosed herein can be determined by subjecting a hydrogel composition to a heat treatment, such as, e.g., steam sterilization at normal pressure or under pressure (e.g., autoclaving). […] Substantial stability of a hydrogel composition disclosed herein can be evaluated 1) by determining the change in the extrusion force (ΔF) of a hydrogel composition disclosed herein after sterilization, where the change in extrusion force less 2N is indicative of a substantially stable hydrogel composition as measured by (the extrusion force of a hydrogel composition with the specified additives) minus (the extrusion force of the a hydrogel composition without the added additives); and/or 2) by determining the change in rheological properties of a hydrogel composition disclosed herein after sterilization, where the change in tan δ 1 Hz of less than 0.1 is indicative of a substantially stable hydrogel composition as measured by (tan δ 1 Hz of gel formulation with additives) minus (tan δ 1 Hz of gel formulation without additives). […]
(§1) The hydrogel properties, aspect (i.e., color/clarity/homogeneity), and extrusion force were analyzed after autoclaving and at 3 years equivalent at room temperature.

[2] = Extrusion force of HA-based gel at 3 years equivalent at room temperature; assay type: physicochemical; details: ingredient at 0.1 % in HA-based gel matrix
Protocol: as §1

## O=[Se](O)O [Sodium selenite]
[1]
  Extrusion force (N) after autoclaving: PASSED (the change of extrusion force (ΔF) was less than two Newtons (< 2 N))
[2]
  Extrusion force (N) 3 years ∼ room T °C: PASSED (the change of extrusion force (ΔF) was less than two Newtons (< 2 N))
